Like-named read-outs stand apart in the source and are kept apart here. No constants are given. Whether binding was seen depends on the method and setting. In cells and extracts the contact can be indirect. These calls come from enrichment with a bait or labelling near it, and not all partners need be listed.

By UniProt entry, the sequences of proteins in these tests, tags left out.
UniProt P07814: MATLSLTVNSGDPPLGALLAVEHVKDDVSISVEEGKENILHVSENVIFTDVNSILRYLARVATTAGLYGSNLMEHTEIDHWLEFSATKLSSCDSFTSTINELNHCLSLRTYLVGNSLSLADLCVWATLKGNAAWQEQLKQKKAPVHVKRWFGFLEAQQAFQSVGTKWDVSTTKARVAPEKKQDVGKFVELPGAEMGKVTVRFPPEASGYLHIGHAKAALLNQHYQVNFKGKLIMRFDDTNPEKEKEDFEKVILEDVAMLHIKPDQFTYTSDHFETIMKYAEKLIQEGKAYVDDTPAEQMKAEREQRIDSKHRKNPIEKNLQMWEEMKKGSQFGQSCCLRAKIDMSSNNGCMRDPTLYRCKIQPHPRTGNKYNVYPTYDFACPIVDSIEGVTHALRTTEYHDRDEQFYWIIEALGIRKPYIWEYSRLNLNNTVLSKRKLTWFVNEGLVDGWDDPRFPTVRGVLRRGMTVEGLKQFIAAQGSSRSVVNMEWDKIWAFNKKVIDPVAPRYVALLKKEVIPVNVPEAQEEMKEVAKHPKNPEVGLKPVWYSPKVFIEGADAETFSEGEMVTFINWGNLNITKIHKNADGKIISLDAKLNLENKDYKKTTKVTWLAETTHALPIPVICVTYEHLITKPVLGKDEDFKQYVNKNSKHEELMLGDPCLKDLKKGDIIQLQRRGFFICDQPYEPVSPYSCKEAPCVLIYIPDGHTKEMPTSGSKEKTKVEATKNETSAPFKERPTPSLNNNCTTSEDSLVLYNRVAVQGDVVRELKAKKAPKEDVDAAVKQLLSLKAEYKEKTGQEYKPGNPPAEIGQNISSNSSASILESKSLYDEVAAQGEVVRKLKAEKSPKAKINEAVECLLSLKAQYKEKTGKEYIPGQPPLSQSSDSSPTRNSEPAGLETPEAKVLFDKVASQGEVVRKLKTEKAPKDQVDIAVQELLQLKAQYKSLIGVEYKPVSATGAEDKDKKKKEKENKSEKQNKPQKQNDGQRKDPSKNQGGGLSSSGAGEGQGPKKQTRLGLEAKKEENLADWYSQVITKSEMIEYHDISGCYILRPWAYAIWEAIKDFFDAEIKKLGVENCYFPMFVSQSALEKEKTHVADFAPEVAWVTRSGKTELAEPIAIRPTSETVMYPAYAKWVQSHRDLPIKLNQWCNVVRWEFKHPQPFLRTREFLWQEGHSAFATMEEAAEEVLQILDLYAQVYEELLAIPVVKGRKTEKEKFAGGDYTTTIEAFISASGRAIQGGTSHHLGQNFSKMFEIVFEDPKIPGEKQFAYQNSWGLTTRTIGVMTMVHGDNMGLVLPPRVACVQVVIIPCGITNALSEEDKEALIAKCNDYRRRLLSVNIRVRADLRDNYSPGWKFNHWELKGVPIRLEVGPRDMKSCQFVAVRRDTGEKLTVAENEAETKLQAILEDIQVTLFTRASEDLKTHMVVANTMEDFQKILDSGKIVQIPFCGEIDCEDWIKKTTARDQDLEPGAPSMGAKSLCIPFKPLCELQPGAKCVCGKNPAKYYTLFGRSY
UniProt P31749: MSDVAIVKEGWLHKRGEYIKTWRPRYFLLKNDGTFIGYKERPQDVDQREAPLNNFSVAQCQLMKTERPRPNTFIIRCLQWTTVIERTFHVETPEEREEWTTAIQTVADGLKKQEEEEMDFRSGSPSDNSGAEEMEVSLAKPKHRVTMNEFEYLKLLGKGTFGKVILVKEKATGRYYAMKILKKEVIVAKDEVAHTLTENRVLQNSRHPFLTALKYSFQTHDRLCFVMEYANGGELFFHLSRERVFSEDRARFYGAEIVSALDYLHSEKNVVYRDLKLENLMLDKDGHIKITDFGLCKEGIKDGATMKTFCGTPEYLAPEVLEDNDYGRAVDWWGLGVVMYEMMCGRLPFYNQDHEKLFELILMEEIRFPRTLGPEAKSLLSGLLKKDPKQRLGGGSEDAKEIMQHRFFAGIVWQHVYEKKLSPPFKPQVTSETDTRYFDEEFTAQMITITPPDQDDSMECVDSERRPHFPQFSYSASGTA
UniProt P51148: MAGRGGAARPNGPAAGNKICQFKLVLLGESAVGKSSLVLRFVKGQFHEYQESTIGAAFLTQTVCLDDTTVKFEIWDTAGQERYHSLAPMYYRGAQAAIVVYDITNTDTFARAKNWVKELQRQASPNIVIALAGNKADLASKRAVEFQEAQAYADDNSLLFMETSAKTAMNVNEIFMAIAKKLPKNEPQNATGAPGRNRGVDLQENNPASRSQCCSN

Experiment [1] addresses Strep-EPRS1 (glutamyl-prolyl-tRNA synthetase 1, Strep-tagged) (human) (UniProt P07814). Description: affinity purification with mass spectrometry; Strep-EPRS1 in transfected 293T cells, unstimulated or LPS-stimulated; Strep-Tactin Superflow column, desthiobiotin elution, in-gel digestion, Orbitrap.
For experiment [2] the target is unchanged. The experiment is described as above. This is another data set of the same source.

Consider “AKT1, endogenous in 293T cells (from UniProt P31749 1-480) (enzyme)”, for which, in experiment [1], the binding entry is listed as “binds”.
For “Rab5C, endogenous in 293T cells (from UniProt P51148 1-216)”, in experiment [1], the binding entry is reported as “binds”.

B1: Rab5B, endogenous in 293T cells (protein, UniProt P61020 1-215)
chain: MTSRSTARPNGQPQASKICQFKLVLLGESAVGKSSLVLRFVKGQFHEYQESTIGAAFLTQSVCLDDTTVKFEIWDTAGQERYHSLAPMYYRGAQAAIVVYDITNQETFARAKTWVKELQRQASPSIVIALAGNKADLANKRMVEYEEAQAYADDNSLLFMETSAKTAMNVNDLFLAIAKKLPKSEPQNLGGAAGRSRGVDLHEQSQQNKSQCCSN
For the molecule B1, in experiment [2], the binding entry is recorded as “binds”.

The values are drawn from article PMC9617928.
